In PubChem BioAssay AID1487 (National Center for Advancing Translational Sciences (NCATS), 2009) one finds AC50 data, which are given here for 36 compounds.

SMILES strings stand for the structures. Some of the results follow. Shown are side measurements of this screen, not its main read-out; they come without a call. The list favours compounds with an active or inconclusive main result. The note in brackets gives the kind of curve behind each potency; many fits are weak.

A short description of the test: qHTS Assay for Modulators of Lamin A Splicing. The following applies: HeLa LMNA splicing GFP/RFP minigene ratio, 48 h. Put shortly: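 Read-out is the ratio of GFP to DsRed2 object intensity, acquired by 488 nm laser-scanning cytometry on HeLa lamin A-EGFP minigene reporter cells. Compound incubation 48 hrs at 37 °C in Opti-MEM with 2% FBS; DMSO 0.5% final.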
[1] abbreviates: measured here: GFP splicing reporter channel.
Where [2] appears, read: measured here: RFP viability control channel.

What is called AC50 is the midpoint of the concentration-response curve, whichever way the signal moves. As to `COc1cc(NC(=O)c2ccccc2NS(=O)(=O)c2ccc(Cl)s2)cc(OC)c1`, the AC50 under setting [1] is 1.41 µM [rising, partial curve, poor fit] and the AC50 under setting [2] is 3.16 µM [rising, partial curve].

Consider `COc1cccc(-n2c(SCc3ccccc3C)nc3c([nH]c4ccccc43)c2=O)c1`, for which the AC50 is 25.1 µM [falling, partial curve, poor fit] under setting [1] and 35.5 µM [falling, single point] under setting [2].

Regarding `CCCC(=O)NC(c1ccc(OC)cc1)c1ccc2cccnc2c1O` (configuration not stated), the AC50 under setting [1] is 3.98 µM [falling, full curve].

With `O=C(C1CC1)N1CCN(c2nc3ccc(F)cc3s2)CC1`, the AC50 was 0.00316 µM [falling, full curve, poor fit] under setting [1] and 0.00316 µM [falling, full curve, poor fit] under setting [2].

As to `CCCCn1c(N)c(NCCC)c(=O)[nH]c1=O`, the AC50 under setting [2] was 1 µM [rising, partial curve].

Turning to `COc1ccc(C(CC(=O)c2ccc(C)cc2)Nc2ccc([N+](=O)[O-])cc2)cc1` (configuration not stated), under setting [2], the AC50 is 20 µM [rising, single point].

Take `CCc1cc(C(=O)c2ccccc2OC)c(N)s1`: the AC50 is 31.6 µM [rising, single point] under setting [1] and 31.6 µM [rising, single point] under setting [2].

In the case of `CCCCOc1ccc(CNC(=O)c2cnc3sc(N4CCOCC4)nn3c2=O)cc1`, the AC50 under setting [1] is 0.316 µM [rising, full curve, poor fit].

Take `Cc1cc(N2CCC(C)CC2)n2ncc(-c3ccccc3)c2n1`: the AC50 under setting [2] was 12.6 µM [rising, partial curve].

As to `Cc1cccc(NC(=S)NCCc2ccc3c(c2)OCCO3)c1C`, the AC50 under setting [1] is 0.891 µM [rising, single point].

On to `O=C(O)CCc1nc2cccnc2n1Cc1ccccc1`, for which, under setting [2], the AC50 is 0.708 µM [falling, full curve, poor fit].

`Fc1ccc(-n2ncc3c(SCc4cccnc4)ncnc32)cc1`: the AC50 under setting [2] is 0.0251 µM [rising, full curve, poor fit].

`COc1ccc(-c2cnnn2-c2ccc(NC(=O)c3c(F)cccc3F)cc2)cc1`: the AC50 under setting [1] is 0.0398 µM [falling, full curve].

Consider `COc1ccc(CNS(=O)(=O)c2ccc3c(c2)CCN3C(=O)C2CC2)cc1`, for which the AC50 runs as follows: under setting [1], 20 µM [rising, partial curve, poor fit]; under setting [2], 15.8 µM [rising, partial curve].

As for `O=C(C1CCCO1)N1CCN(C(=S)Nc2ccccc2C(F)(F)F)CC1` (configuration not stated), the AC50 under setting [2] is 35.5 µM [rising, single point].

With `O=C1C2C3C=CC(C3)C2C(=O)N1/N=C/c1ccc(-c2ccccc2[N+](=O)[O-])o1` (configuration not stated), under setting [2], the AC50 was 20 µM [rising, single point].

On to `COc1cccc(Oc2nc(-c3ccncc3)nc3ccccc23)c1`, for which, under setting [2], the AC50 was 1 µM [falling, single point].

As for `COC(=O)c1ccc(-c2noc(CN(C)CCC3CCCCO3)n2)cc1` (configuration not stated), under setting [2], the AC50 was 35.5 µM [falling, single point].

Take `O=S(=O)(NC1c2cccc3cccc(c23)C1N1CCN(CCO)CC1)c1ccccc1` (configuration not stated): the AC50 under setting [2] is 10 µM [rising, partial curve].

Take `CC(C)c1ccc(NC(=O)c2cc(S(=O)(=O)NCC3COc4ccccc4O3)ccc2F)cc1` (configuration not stated): the AC50 under setting [1] is 35.5 µM [falling, single point].

As to `Cc1ccc(S(=O)(=O)NCCSc2nnnn2-c2cc(C)ccc2C)cc1`, the AC50 was 15.8 µM [rising, partial curve, poor fit] under setting [1] and 25.1 µM [rising, single point] under setting [2].

Consider `O=C(CCNc1ccccc1)c1ccc2c(c1)OCO2`, for which the AC50 is 11.2 µM [rising, partial curve, poor fit] under setting [1] and 11.2 µM [rising, partial curve] under setting [2].

In the case of `COC(=O)C1=C(C)N(Cc2ccc(C)cc2)C(=O)/C1=C\c1ccc(O)c(OC)c1`, the AC50 under setting [1] was 7.08 µM [rising, partial curve, poor fit] and the AC50 under setting [2] is 10 µM [rising, partial curve, poor fit].

`COc1ccccc1-c1ccc(SCc2cccc(F)c2)nn1`: the AC50 under setting [1] is 0.00355 µM [rising, full curve, poor fit].

`O=C(Cc1cccs1)N1CCN(S(=O)(=O)c2ccc(Br)cc2)CC1`: the AC50 under setting [1] was 31.6 µM [rising, single point] and the AC50 under setting [2] was 35.5 µM [rising, single point].

`Cc1ccc(Cn2ccc(NC(=O)c3cc(-c4ccc(F)cc4)on3)n2)cc1`: the AC50 under setting [1] was 3.55 µM [rising, full curve, poor fit].

As to `CCCOc1ccc(-c2nnn(CC(=O)N3CCC(C)CC3)n2)cc1`, under setting [2], the AC50 was 17.8 µM [rising, single point].

Take `Cc1ccc(C(=O)COC(=O)c2ccc3c(c2)C(=O)N(c2cccc4ncccc24)C3=O)cc1C`: under setting [2], the AC50 is 22.4 µM [falling, partial curve, poor fit].

Regarding `CC(C)N(C(=O)N1CCC(c2nc(-c3ccncc3)no2)CC1)C(C)C`, the AC50 under setting [2] was 15.8 µM [rising, partial curve, poor fit].

Turning to `COc1ccc(N2CCN(C(=O)c3ccc(OCC4CCCO4)cc3)CC2)cc1` (configuration not stated), under setting [2], the AC50 was 10 µM [rising, partial curve].

For `Cc1cc(C)nc(N/C(=N\S(=O)(=O)Cc2ccccc2)Nc2ccccc2Br)n1`, the AC50 under setting [1] was 35.5 µM [rising, single point] and the AC50 under setting [2] is 35.5 µM [rising, single point].

Consider `O=C(Nc1cccc(-c2csc(-c3ccccc3)n2)c1)c1cccs1`, for which the AC50 under setting [2] is 10 µM [rising, partial curve, poor fit].

As to `COC(=O)c1c(-c2cccc(C)c2)csc1NC(=O)C1CCCO1` (configuration not stated), the AC50 under setting [1] is 25.1 µM [falling, single point].

Consider `Cc1cccc(-n2c(SCC(=O)N3CC(=O)Nc4ccccc43)nc3ccccc3c2=O)c1C`, for which, under setting [2], the AC50 was 12.6 µM [rising, single point].

Regarding `CCOC(=O)c1cc2oc(C(c3nnnn3C3CCCCC3)N3CCOCC3)cc2[nH]1` (configuration not stated), the AC50 under setting [2] was 12.6 µM [rising, partial curve].

In the case of `Cc1ccc(Cl)cc1N(CC(=O)NCc1ccc2c(c1)OCO2)S(C)(=O)=O`, the AC50 is, setting by setting: under setting [1], 10 µM [rising, partial curve, poor fit]; under setting [2], 11.2 µM [rising, partial curve].
